{"source": "PubChem BioAssay AID1224830 (NIAID, 2016)", "screen": "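Genes whose knock-down alters the TNF-alpha reporter response to LPS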 (primary screen)", "cell system": "human THP-1 monocytic leukaemia cells, TNF dual-luciferase reporter clone, PMA-differentiated to macrophage-like cells", "reagents": "siRNA pool against human genes, 50 nM", "duration": "LPS for 4 h, given about 3 days after siRNA transfection", "conditions": "bacterial LPS (TLR4 ligand), 10 ng/ml", "read-out": "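TNF firefly reporter luminescence divided by renilla, normalised to the plate median, then turned into a robust z-score for each replicate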", "direction": "TNF reporter robust z-score: higher = stronger TNF reporter response to LPS", "active means": "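a well is active when its z-score exceeds 2.8 or falls below -1.5; control wells carry no call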", "note": "Here is one part, drawn at random, of about 18,000 deposited reagents. Of all reagents, about 2,900 (16%) were called active. 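Calls are made per well; low scores hint the gene aids the LPS response, high scores that it dampens it.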 Unmarked entries are inactive. Repeated entries: four replicate wells of each siRNA pool."}
{"target gene":"NLN","TNF reporter robust z-score":-0.05}
{"target gene":"NLN","TNF reporter robust z-score":-1.11}
{"target gene":"NLN","TNF reporter robust z-score":-0.42}
{"target gene":"NLN","TNF reporter robust z-score":"-2.14 (active)"}
{"target gene":"SGIP1","TNF reporter robust z-score":0.6}
{"target gene":"SGIP1","TNF reporter robust z-score":0.38}
{"target gene":"SGIP1","TNF reporter robust z-score":0.02}
{"target gene":"SGIP1","TNF reporter robust z-score":-0.02}

Continued:
{"target gene":"FECH","TNF reporter robust z-score":"-1.81 (active)"}
{"target gene":"FECH","TNF reporter robust z-score":-1.21}
{"target gene":"FECH","TNF reporter robust z-score":"-2.01 (active)"}
{"target gene":"FECH","TNF reporter robust z-score":-0.86}
{"target gene":"ATG14","TNF reporter robust z-score":-0.48}
{"target gene":"ATG14","TNF reporter robust z-score":0.47}
{"target gene":"ATG14","TNF reporter robust z-score":-1.45}
{"target gene":"ATG14","TNF reporter robust z-score":0.03}
{"target gene":"ATP1B4","TNF reporter robust z-score":-0.87}
{"target gene":"ATP1B4","TNF reporter robust z-score":-1.25}
{"target gene":"ATP1B4","TNF reporter robust z-score":"-1.63 (active)"}
{"target gene":"ATP1B4","TNF reporter robust z-score":-0.95}
